Chains of the proteins cited; added tags and fusions are not shown. Lines headed by an entry give the natural chain unless they say otherwise; changes in a name come on top.
UniProt A0A0K0YAZ6: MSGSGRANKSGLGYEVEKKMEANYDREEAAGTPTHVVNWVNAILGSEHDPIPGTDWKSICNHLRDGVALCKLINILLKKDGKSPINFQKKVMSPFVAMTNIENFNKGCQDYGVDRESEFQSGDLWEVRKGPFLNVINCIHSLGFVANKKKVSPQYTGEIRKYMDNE
UniProt A0A0K0YB05: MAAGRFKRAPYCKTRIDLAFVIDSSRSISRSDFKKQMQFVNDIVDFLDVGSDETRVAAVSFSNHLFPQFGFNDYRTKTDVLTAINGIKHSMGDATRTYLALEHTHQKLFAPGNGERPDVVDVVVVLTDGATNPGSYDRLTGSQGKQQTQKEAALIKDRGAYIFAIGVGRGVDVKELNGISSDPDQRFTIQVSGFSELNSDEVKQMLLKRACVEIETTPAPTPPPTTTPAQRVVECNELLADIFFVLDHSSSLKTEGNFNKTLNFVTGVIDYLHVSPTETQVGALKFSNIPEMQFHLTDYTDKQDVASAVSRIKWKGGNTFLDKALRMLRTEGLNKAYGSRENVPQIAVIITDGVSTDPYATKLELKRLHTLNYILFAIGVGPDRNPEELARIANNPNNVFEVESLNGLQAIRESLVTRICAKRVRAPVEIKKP
UniProt A0A0K0YB17: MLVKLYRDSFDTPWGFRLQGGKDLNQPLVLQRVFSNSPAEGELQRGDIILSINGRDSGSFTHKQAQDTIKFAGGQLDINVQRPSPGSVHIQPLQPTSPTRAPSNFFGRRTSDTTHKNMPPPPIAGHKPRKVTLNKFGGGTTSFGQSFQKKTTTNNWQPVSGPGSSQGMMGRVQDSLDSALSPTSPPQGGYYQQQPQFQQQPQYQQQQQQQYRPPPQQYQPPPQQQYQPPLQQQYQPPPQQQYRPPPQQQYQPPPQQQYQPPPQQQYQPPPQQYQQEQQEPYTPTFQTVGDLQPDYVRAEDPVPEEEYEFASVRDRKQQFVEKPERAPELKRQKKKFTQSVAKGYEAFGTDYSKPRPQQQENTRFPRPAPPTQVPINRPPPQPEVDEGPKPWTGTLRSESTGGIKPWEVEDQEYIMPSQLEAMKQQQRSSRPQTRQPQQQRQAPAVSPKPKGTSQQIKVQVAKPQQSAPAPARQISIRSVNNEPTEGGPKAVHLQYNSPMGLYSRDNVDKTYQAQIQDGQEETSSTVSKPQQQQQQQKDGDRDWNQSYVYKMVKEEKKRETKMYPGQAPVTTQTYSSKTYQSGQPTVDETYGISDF

According to paper PMC7141649:

Target: recombinant whirlin-like protein with His6 tag (bait of the pull-down) (Mytilus coruscus)
Assay: affinity purification with mass spectrometry; rWLP with His6 tag bound to Ni-NTA beads as bait; washed with 20 mM Tris-HCl, 150 mM NaCl, 10 mM imidazole, pH 8.0; incubated with total proteins extracted from the shell of M. coruscus for 4 h at 4°C; eluted with 300 mM NaCl, 300 mM imidazole; LC-MS/MS after trypsin; FDR <1%; only the target purified

transgelin-like protein-3 [Mytilus coruscus] (from UniProt A0A0K0YAZ6)
binding: binds

collagen-like protein-2 [Mytilus coruscus] (from UniProt A0A0K0YB05)
binding: binds

PDZ domain-containing protein-1 [Mytilus coruscus] (from UniProt A0A0K0YB17)
binding: binds

No constants are given. Whether binding was seen depends on the method and setting. In cells and extracts the contact can be indirect. A yes stands for co-enrichment or nearness to the bait. Other partners may have been found.
